# Inconclusive means that the source gave no clear call. Such entries were picked first, then a sample of the others. Potencies of inconclusive entries are doubtful fits and often do not repeat. The source made the active and inactive calls. Calls come from the whole dose curve; as a rule, active = well fitted curve in the direction sought with a large enough effect; inconclusive = small, poorly fitted or top-dose-only effect; inactive = flat fitted curve, though single readings scatter.
# Assay: Quantitative high throughput screen for delayed death inhibitors of the malarial parasite plastid: Hit Validation with Dd2 at 96hr using Flow Cytometry
# Settings: P. falciparum Dd2 growth; parasitemia, lower = inhibition: at 50 µM (top of the series)
# Text: The goal of this screen is to discover new antimalarial compounds that act by inhibiting the development of the apicoplast organelle in the malarial parasite Plasmodium falciparum. Some antibiotics, such as azithromycin and tetracycline, are known to interfere with the apicoplast translational machinery, and have a potent antimalarial effect. […] We developed a cell-based quantitative high throughput screen that leverages this "delayed death" phenotype to enrich for compounds that target the apicoplast. To detect small molecules that cause the delayed death phenotype, erythrocytes infected with firefly luciferase-expressing parasites were incubated with compounds for either one or two generations, corresponding to 48 and 96 hours, respectively. Growth inhibition was detected by a decrease in luciferase activity. Compounds that inhibited parasite growth in the second generation at least five-fold more potently than in the first generation were defined as delayed death inducing. These compounds were selected for confirmatory screening using a flow cytometry based assay. This hit validation assay used the Dd2 cell line and measured at 96 hours. NIH Molecular Libraries Probe Production Network [MLPCN] NIH Chemical Genomics Center [NCGC] MLPCN Grant: R21 NS059500 Assay Provider: David Fidock and Eric Ekland, Columbia University
# Test compounds were diluted in 20 microliters of complete media (RPMI 1640 with 0.5% w/v Albumax (GIBCO), 24 mM sodium bicarbonate (Sigma) and 10 ug/mL gentamycin (Gibco)) in clear 384-well plates (Greiner). All liquid handling was conducted using a Bio Tek Precision 2000 pipetting system. Twenty microliters of infected erythrocytes, 0.2% parasitemia (for 48 hour time points) or 0.1% parasitemia (for 96 hour time points) were added to the compound dilutions (1% hematocrit, final concentration; 40 microliters, total culture volume). The assay plates were incubated for 48 hours, or 96 hours, at 37 masculine C in a humidified chamber (Billups- Rothenberg, Del Mar, CA, USA), gassed with 5%CO2/5%O2/ 90%N2. After two generations (96 hours), 5 microliters of culture were harvested and transferred to a second 384 well plate for fluorescent staining. Samples were stained with 30 microliters of 2 x SYBR Green I (Invitrogen) and 150nM MitoTracker Deep Red (Invitrogen) diluted in 0.9% NaCl, 0.2% dextrose (Baxter) supplemented with 2.5% Fetal Calf Serum (Gibco) (saline/FCS). Mature erythrocytes lack nuclei and mitochondria, therefore only parasitized erythrocytes retain the SYBR Green I and MitoTracker Deep Red. After 30 minutes at 37 masculine C, the stained cells were diluted in an additional 60 microliters of saline/FCS. The samples were harvested directly from the 384 well plate using a Hypercyt High Capacity Flow Platform (Intellicyt) paired with a C6 Flow Cytometer (Accuri). The flow cytometry files were analyzed using FlowJo software (FlowJo).
Compound,Potency,"parasitemia, lower = inhibition"
CCCc1cc(=O)oc2cc(OC(C)C(=O)NCc3ccccn3)c(Cl)cc12 (stereo not given),"inconclusive: 3.8 µM [rising, single point]",–
CCN(CC)C(=O)COc1coc(CN2CCN(c3cccc(Cl)c3)CC2)cc1=O,"inconclusive: 26.7 µM [rising, single point]",–
COc1cc(C(C)=O)ccc1OCC(O)CN1CCN(c2cc(C)cc(C)c2)CC1 (stereo not given),–,inconclusive: 1.24
CN(C)S(=O)(=O)c1cc(NC(=O)C2=COCCO2)ccc1Cl,–,inconclusive: 2.77
O=C(NCc1cccnc1)c1ccc(NS(=O)(=O)c2ccccc2)cc1,"inconclusive: 16.1 µM [rising, single point]",–
CN(C)c1ccc(CN(C(=O)c2ccccc2Br)C2CCS(=O)(=O)C2)cc1 (stereo not given),active: 29.1 µM,–
COc1ccc(Nc2nnc(-c3ccc(C)cc3)c3ccccc23)cc1C(=O)N1CCCCC1,active: 25.7 µM,–
COc1ccc2c(ccc[n+]2CC(=O)c2ccccc2)c1,active: 5.18 µM,–
COCCNC(=O)c1cccc(OC2CCN(Cc3cccc(SC)c3)CC2)c1,inactive,–
COc1ccccc1N1CCN(CCC(=O)Nc2ccc(F)cc2)CC1,active: 8.91 µM,–

# 3 compounds out of the list, ordered by heavy-atom count, rising.
Compound,Potency,"parasitemia, lower = inhibition"
O=C(NCc1cccnc1)c1ccc(NS(=O)(=O)c2ccccc2)cc1,"inconclusive: 16.1 µM [rising, single point]",–
CN(C)c1ccc(CN(C(=O)c2ccccc2Br)C2CCS(=O)(=O)C2)cc1 (stereo not given),active: 29.1 µM,–
COc1cc(C(C)=O)ccc1OCC(O)CN1CCN(c2cc(C)cc(C)c2)CC1 (stereo not given),–,inconclusive: 1.24

# From PubChem BioAssay AID624337 (National Center for Advancing Translational Sciences (NCATS), 2012)
